Source: PubChem BioAssay AID504791 (Drosophila RNAi Screening Center, 2011)

- Purpose: 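Genes of the fly required for silencing by miRNA, siRNA or endo-siRNA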 (primary screen)
- Cells: Drosophila S2-derived reporter cells
- Knock-down reagent: long dsRNA against Drosophila genes, about 150-250 ng dsRNA per well (siRNA assay); about 80-120 ng (miRNA assay)
- Time to read-out: about 5 days (siRNA assay); about 4 days (miRNA assay)
- Challenge: copper sulfate induction of reporters: 25 µM (siRNA assay); 200 mM stated (miRNA assay), 1-2 days before reading
- Detection: 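Per-well ratio of Renilla over firefly light, expressed relative to that plate's average ratio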
- Reading the numbers: siRNA reporter hit score: higher = 3 marks a strong hit with raised ratio; -3 a strong hit with lowered ratio
- Units: stable assay Renilla, run 1 in luminescence; stable assay firefly, run 1 in luminescence
- Active means: 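First-pass picks had plate-scaled ratios over 1.5 for the siRNA assay, over 1.6 for the miRNA assay, or under 0.6; two distinct dsRNAs had to score alike on retest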
The deposit covers about 23,000 reagents; shown is an unselected part of those with a known target gene and a result. Over the whole deposit, 199 (0.86%) were called active. 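Plate-scaled ratios behind the calls are not deposited; printed light signals are raw; many rows marked increased or decreased are still called inactive.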 Reagent sequences are not shown.

gene | PubChem SID | siRNA reporter hit score | stable siRNA reporter change | miRNA reporter change | stable assay Renilla, run 1 | stable assay firefly, run 1 | Outcome
nrm | SID104191389 | – | – | – | 5207 | 3.49e5 | inactive
nrm | SID104191391 | – | – | – | 6644 | 5.15e5 | inactive
nrm | SID104191689 | – | – | – | 6836 | 4.16e5 | inactive
CG31974 | SID104180314 | – | – | – | 7634 | 3.19e5 | inactive
CG1927 | SID104187938 | – | – | – | 8152 | 2.96e5 | inactive
CG13996 | SID104182120 | – | reporter ratio lowered past the hit cutoff | – | 3923 | 3.67e5 | inactive
CG3815 | SID104198116 | – | – | – | 9256 | 4.94e5 | inactive
ps | SID104194941 | – | – | – | 6351 | 4.14e5 | inactive
ps | SID104194943 | – | – | – | 6131 | 3.53e5 | inactive
ps | SID104194944 | – | reporter ratio raised past the hit cutoff | – | 5970 | 2.03e5 | inactive
ps | SID104196180 | – | – | reporter ratio raised past the hit cutoff | 2579 | 1.04e5 | inactive
ps | SID104202346 | – | – | – | 5691 | 3.86e5 | inactive
Ino80 | SID104194552 | – | – | – | 7230 | 4.76e5 | inactive
Ino80 | SID104195125 | – | – | – | 9719 | 4.88e5 | inactive
Ino80 | SID104195293 | – | – | – | 7623 | 4.12e5 | inactive
Rpp21 | SID104201935 | – | – | – | 2512 | 2.53e5 | inactive
C901 | SID104199143 | – | – | – | 4564 | 3.07e5 | inactive
eloF | SID104194954 | – | – | – | 7395 | 3.77e5 | inactive
CG4661 | SID104199702 | – | – | – | 5495 | 5.15e5 | inactive
Cp19 | SID104190913 | – | – | – | 6551 | 3.31e5 | inactive
CheB38a | SID104182997 | – | – | – | 5331 | 4.61e5 | inactive
CG11537 | SID104187992 | – | – | – | 8033 | 4.64e5 | inactive
AANATL3 | SID104181881 | – | – | – | 6750 | 3.05e5 | inactive
GlcAT-I | SID104197099 | – | – | – | 6371 | 2.71e5 | inactive
Cys | SID104196429 | – | – | – | 6831 | 4.08e5 | inactive
Hr38 | SID104183137 | – | reporter ratio raised past the hit cutoff | – | 5482 | 1.82e5 | inactive
Hr38 | SID104202587 | – | – | – | 6034 | 3.78e5 | inactive
CG9150 | SID104182940 | – | – | – | 7327 | 4.08e5 | inactive
CG14851 | SID104194767 | – | – | – | 7387 | 3.50e5 | inactive
CG14851 | SID104201226 | – | – | – | 8574 | 4.83e5 | inactive
CG13359 | SID104198331 | – | – | – | 5954 | 3.69e5 | inactive
CG34229 | SID104186108 | – | – | – | 5080 | 2.35e5 | inactive
CG6847 | SID104199005 | – | – | – | 5576 | 4.52e5 | inactive
CG6847 | SID104199801 | – | – | – | 5331 | 5.28e5 | inactive
elB | SID104181171 | – | – | – | 5372 | 3.82e5 | inactive
elB | SID104183319 | – | – | – | 6227 | 4.25e5 | inactive
CG4730 | SID104195425 | – | – | – | 6526 | 3.26e5 | inactive
CaMKI | SID104196954 | – | – | – | 9189 | 4.85e5 | inactive
CG6893 | SID104190534 | – | – | – | 7327 | 3.68e5 | inactive
DIP-kappa | SID104181128 | – | – | – | 4179 | 3.17e5 | inactive
DIP-kappa | SID104181129 | – | – | – | 4243 | 3.39e5 | inactive

An excerpt from above, showing only “stable assay firefly, run 1”.
CG13996 [SID104182120]	3.67e5
CG3815 [SID104198116]	4.94e5
ps [SID104194941]	4.14e5
ps [SID104194943]	3.53e5
ps [SID104194944]	2.03e5
ps [SID104196180]	1.04e5
ps [SID104202346]	3.86e5
Ino80 [SID104194552]	4.76e5
Ino80 [SID104195125]	4.88e5
Ino80 [SID104195293]	4.12e5
Rpp21 [SID104201935]	2.53e5
C901 [SID104199143]	3.07e5
eloF [SID104194954]	3.77e5
CG4661 [SID104199702]	5.15e5

Further reagents follow:
gene | PubChem SID | siRNA reporter hit score | stable siRNA reporter change | miRNA reporter change | stable assay Renilla, run 1 | stable assay firefly, run 1 | Outcome
CG42232 | SID104194810 | – | – | – | 9177 | 3.06e5 | inactive
CG42232 | SID104194811 | – | – | – | 8539 | 3.65e5 | inactive
Cyp9f2 | SID104196427 | – | – | – | 8094 | 4.35e5 | inactive
mRpS14 | SID104199236 | – | – | – | 4372 | 2.71e5 | inactive
CG17211 | SID104182379 | – | – | – | 6703 | 3.91e5 | inactive
AsnRS | SID104181782 | – | – | – | 8298 | 1.75e6 | inactive
dnr1 | SID104183740 | – | – | – | 7554 | 6.10e5 | inactive
dnr1 | SID104183914 | – | – | – | 5256 | 3.02e5 | inactive
CG8568 | SID104199905 | – | – | – | 8887 | 5.46e5 | inactive
Lsm12a | SID104199494 | – | – | – | 4516 | 3.91e5 | inactive
GILT3 | SID104194464 | – | – | – | 7307 | 4.61e5 | inactive
Trhn | SID104188413 | – | – | – | 11454 | 5.35e5 | inactive
Prosalpha6T | SID104182665 | – | – | – | 7488 | 4.25e5 | inactive
CG11170 | SID104183882 | – | – | – | 11277 | 4.86e5 | inactive
CG13047 | SID104189720 | – | – | – | 7722 | 4.49e5 | inactive
CG30154 | SID104185681 | – | – | – | 6043 | 5.34e5 | inactive
Nmdar1 | SID104191863 | – | – | – | 5539 | 3.96e5 | inactive
Nmdar1 | SID104192148 | – | – | – | 7171 | 4.24e5 | inactive
CG8100 | SID104190753 | – | – | – | 8091 | 4.48e5 | inactive
Tasp1 | SID104190287 | – | – | – | 7851 | 3.06e5 | inactive
CG16710 | SID104194928 | -3 | – | – | 6608 | 5.03e5 | inactive
alt | SID104195107 | – | – | – | 7826 | 3.65e5 | inactive
Cyp12c1 | SID104190917 | – | – | – | 9735 | 5.71e5 | inactive
CG5334 | SID104199733 | – | – | – | 5611 | 4.00e5 | inactive
Obp83b | SID104192152 | – | – | – | 8363 | 5.53e5 | inactive
CG31686 (retired record) | SID104179894 | – | – | – | 4087 | 3.67e5 | inactive
Atx2 | SID104195519 | 3 | reporter ratio raised past the hit cutoff | – | 6659 | 2.18e5 | inactive
Atx2 | SID104202367 | – | – | – | 2356 | 2.62e5 | inactive
Act79B | SID104191396 | – | reporter ratio lowered past the hit cutoff | – | 5890 | 5.66e5 | inactive
Diap2 | SID104187236 | – | – | – | 7862 | 3.13e5 | inactive
Cdc7 | SID104198220 | – | – | – | 3827 | 3.54e5 | inactive
Cdc7 | SID104198221 | – | – | – | 5287 | 3.24e5 | inactive
Cdc7 | SID104201686 | – | – | – | 11423 | 8.14e5 | inactive
CG15196 | SID104199435 | – | – | – | 4907 | 4.53e5 | inactive
CG5966 | SID104198186 | – | – | – | 7346 | 4.10e5 | inactive
CG30288 | SID104201596 | – | – | – | 8301 | 5.30e5 | inactive
CG17104 | SID104182365 | – | – | reporter ratio lowered past the hit cutoff | 6099 | 8.25e5 | inactive
APC4 | SID104198152 | – | – | – | 7735 | 4.13e5 | inactive
orb2 | SID104190332 | – | – | – | 8866 | 4.59e5 | inactive
orb2 | SID104190333 | – | – | – | 5668 | 3.77e5 | inactive
orb2 | SID104190334 | – | reporter ratio raised past the hit cutoff | – | 46627 | 4.88e5 | inactive
CG8888 | SID104187086 | – | – | – | 9481 | 6.32e5 | inactive
CG8888 | SID104187087 | – | – | – | 6724 | 4.70e5 | inactive
